The record followed here is PMC8440923, “Peptides Targeting the Interaction Between Erb1 and Ytm1 Ribosome Assembly Factors” (Frontiers in Molecular Biosciences, 2021).

Test [1] deals with T1, Biot-P6 (N-terminally biotinylated Ytm1 385-391) (Chaetomium thermophilum).
T1 sequence (peptide, biotin on the N-terminus): RGHANKV
Description: BLI; biotinylated peptide (50 µg/ml) immobilised on streptavidin biosensor; Ytm1 (or Erb1 for Biot-P6) as analyte; interference-assay buffer with 0.05% BSA; both purified.

In test [2] the target is T2, Ytm1 (Chaetomium thermophilum ribosome assembly factor) (Chaetomium thermophilum) (UniProt G0SFB5).
T2 sequence: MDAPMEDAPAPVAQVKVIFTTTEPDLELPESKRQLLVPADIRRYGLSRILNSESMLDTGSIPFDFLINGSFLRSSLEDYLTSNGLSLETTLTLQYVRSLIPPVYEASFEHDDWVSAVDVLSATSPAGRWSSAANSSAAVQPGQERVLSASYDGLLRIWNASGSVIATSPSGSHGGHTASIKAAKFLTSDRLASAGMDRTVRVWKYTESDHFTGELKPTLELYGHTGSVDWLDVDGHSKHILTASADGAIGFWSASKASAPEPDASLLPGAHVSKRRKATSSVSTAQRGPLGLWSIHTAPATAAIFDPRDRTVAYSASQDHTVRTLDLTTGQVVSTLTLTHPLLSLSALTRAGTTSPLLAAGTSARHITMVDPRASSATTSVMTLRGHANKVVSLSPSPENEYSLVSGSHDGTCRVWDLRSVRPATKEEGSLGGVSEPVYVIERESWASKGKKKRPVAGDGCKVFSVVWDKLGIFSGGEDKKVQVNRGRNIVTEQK
Nature of the test: MST; 5 nM Ytm1 labelled with Red-NHS second-generation dye; 50 mM HEPES pH 7.5, 150 mM NaCl, 0.1% Pluronic F-127; peptide in sixteen serial dilutions (P1 1,230-0.0751 µM; P3 maximum 1,580 µM); Monolith NT.115; both purified.

Test [3] addresses T2, Ytm1 (Chaetomium thermophilum ribosome assembly factor) (Chaetomium thermophilum). Description: differential scanning fluorimetry; Thermofluor with SYPRO Orange; Ytm1 5 µM in 50 mM HEPES pH 7.5, 150 mM NaCl; peptide at 1 mM; 20-85°C at 1°C/min; both purified. A general note: DSF heats the sample and reads unfolding from a dye or from intrinsic fluorescence.

These are yes or no findings as the source states them, for the method shown. Some results given as binding are weak or reduced against the parent protein; the word gives no strength.

B1: Erb1 (Chaetomium thermophilum ribosome assembly factor) (natural protein, UniProt G0SCK6 1-801, looked up)
chain: MGSKIVEKKRKSRDSDSESDNELGDGLFDGVLSQSEDEEDYIPSSEVDEDDDDDADESASEDSDDSNDSEDDEVEEDDEALLSDEIPSEGESEKDQDLAESKESKQDQDKEPSEPEILEPFVDPPRKEDEELEDRNYRIEKDANGGIRYVYDEIDPVYDSDDTDYNVPVNTIGNIPLSFYDSYPHIGYDINGKKIMRPATGDALQNLLDSIEVPEGWTGLTDPNTGKPLNLSRDELELIRKVQQGLIPDDVEDPYPDTVEWFTSVEEKMPLSAAPEPKRRFIPSKNEAKQIMKLVRAIREGRILPYKPPEEREREELEKEEEFYDLWQNEEPQPPNPMHIPAPKLPPPGYDLSYNPPPEYLPTKEEREEWEKMDPEDREKDYLPTKYDSLRKVPAWGNFVKERFERCMDLYLAPRVRKNRLNIDPNSLLPKLPSPDELKPFPTVQQTIFRGHEGRVRSVAIDPTGVALATGGDDGTVRVWELLTGRQVWSVKLNGDEAVNTVRWRPTKDTFILAAAAGEDIFLMIPTHPSVTPALDQASRDILNAGFGHATNGKQQANLPPGKEPPGKWARPGTRLEDEGVLLRITVRSTIKAISWHRRGDHFATVSPSGQRSSVAIHTLSKHLTQIPFRKLNGLAQTASFHPLRPLFFVATQRSIRCYDLQKLELVKIVQPGAKWISSFDVHPGGDNLVVGSYDKRLLWHDLDLSNRPYKTMRFHTEAIRAVRFHKGGLPLFADASDDGSLQIFHGKVPNDQLENPTIVPVKMLKGHKVVNKLGVLDIDWHPREPWCVSAGADGTARLWM
notes: Erb1, Chaetomium thermophilum; cloned in pET28-NKI/LIC 6His/3C; Erb1 was held on Ni-NTA biosensors; source: E. coli (DE3) BL21 CodonPlus (RIPL), auto-induction, purified (Histrap-HP Ni, HiTrap Heparin, Superdex 200 SEC)
For B1, the binding entry in test [1] is listed as “no binding”.

On to DWHPREPWCV [Peptide P3 (Erb1 780-789)], for which the binding entry in test [2] is “binds weakly”.

B2: Peptide P1 (Erb1 479-489) (peptide)
peptide: VWELLTGRQVW
notes: Erb1, Chaetomium thermophilum, residues 479-489; source: synthetic peptide, bought: Synpeptide Co., Ltd., Shanghai
Turning to B2, the binding entry in test [3] is “binds”.
